Part of at least one peptide drawing is inferred or uncertain, most often the ends. For at least one compound, name, drawing or mass did not settle the structure.
Columns and labels:
[1] = test system: plasma renin activity (PRA); test: Plasma renin activity (PRA) in conscious, sodium-deficient Rhesus monkeys; assay type: in vivo
[2] = test system: conscious, sodium-deficient Rhesus monkeys; test: Mean arterial blood pressure (MAP) in conscious, sodium-deficient Rhesus monkeys; assay type: in vivo; settings: for Maximum decrease in MAP: intravenous
[3] = intravenous, Example 2 at 0.41 and 1.64 mg/kg, Example 3 at 0.24 and 1.44 mg/kg
[4] = high dose (Example 2 1.64 mg/kg; Example 3 1.44 mg/kg)
[5] = low dose (Example 2 0.41 mg/kg; Example 3 0.24 mg/kg)

| SMILES | inhibition of PRA [1, 3] | minimum duration of 90-100% inhibition of PRA [1, 3] | Maximum decrease in MAP [2, 4] | Maximum decrease in MAP [2, 5] | onset of the PRA response ([1]; oral, 10 mg/kg) | reversal of PRA inhibition ([1]; oral, 10 mg/kg, at 6 hours) | inhibition of PRA ([1]; oral, 10 mg/kg, two monkeys) | Decreases in MAP ([2]; oral, 10 mg/kg) |
| --- | --- | --- | --- | --- | --- | --- | --- | --- |
| CC(C)(C)OC(=O)N[C@@H](Cc1ccccc1)C(=O)N[C@@H](Cc1c[nH]cn1)C(=O)N[C@@H](CC1CCCCC1)[C@@H](O)CC(=O)NC1C[N+]2(C)CCC1CC2 (stereo partly drawn) [Example 2, N^α -t-butoxycarbonyl-L-phenylalanyl-L-histidyl-(3S,4S)-4-amino-5-cyclohexyl-3-hydroxy-pentanoyl-1-methylquinuclidium-3-yl amide acetate] | 90-100% | 3 to 6 h | -38 mmHg | -9 mmHg | – | – | – | – |
| CC(C)(C)OC(=O)N[C@@H](Cc1ccccc1)C(=O)N[C@@H](Cc1c[nH]cn1)C(=O)N[C@@H](CC1CCCCC1)[C@@H](O)CC(=O)NC1C[N+]2(CCCCO)CCC1CC2 (stereo partly drawn) [Example 3, N^α -t-butoxycarbonyl-L-phenylalanyl-L-histidyl(3S,4S)-4-amino-5-cyclohexyl-3-hydroxypentanoyl-1-(4-hydroxybutyl)-quinuclidinium-3-yl amide acetate] | 90-100% | 3 to 6 h | -30 mmHg | -20 mmHg | ≤ 30 min | no signs of reversal | 72-86% | -5 mmHg |
